Assay results reported in PubChem BioAssay AID328 (DTP/NCI, 2004).
The list shows only some results of the screen, not a fair sample: it gathers tests that were run many times, whatever their T/C, doses with no T/C, and many T/C values between a quarter and a half above the control. Other doses and runs of a compound stand elsewhere. T/C is the treated group as % of the vehicle group. Some entries give survivors of the animals treated and no T/C: the source files T/C as zero there, which appears to mark a toxic dose or a test without result, not a measured value. Some survivor counts are full or nearly so, which does not show that the dose was tolerated: survival well below the control is almost never listed, so the zero probably covers shortened survival too. Counts of survivors are from the toxicity check (mostly the fifth day) where no day follows; animals may have died later. Schedules are NCI's codes, taken here to give the interval after Q, in days (D) or hours (H), and the number of doses after X. Signs of the kind (2×) count equal records among those shown. Some doses were run more than once; the values are given in rising order. Where survival is the endpoint, this PubChem deposit counts one and a half times the control or more as active, and values a quarter to a half above the control carry no call in these data; other NCI protocols may use other cut-offs. Some T/C values are followed by the survivors on the day toxicity was checked, most often the fifth; where none is given, no animal had died by that day. Some schedule codes hold Z or #, which are not explained here.

Test system: BDF1 mice, P388 leukemia ip, median survival T/C
Assay: NCI In Vivo Anticancer Drug Screen. Data for tumor model P388 Leukemia (intraperitoneal) in B6D2F1 (BDF1) mice
Details: T/C endpoint: median survival time, higher T/C = longer survival
Procedure, shortened: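 In tumour-bearing mice, survival after compound treatment is set against the vehicle group and given as a quotient.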

[1] = dose: 16.0 mg/kg/injection, schedule: Q01DX009 (ip), vehicle: Klucel (hydroxypropylcellulose) (HPC)
[2] = dose: 80.0 mg/kg/injection, schedule: Q01DX001 (ip), vehicle: saline + alcohol

Question: What does the source list for O=NN(CCCl)C(=O)NCCCl?
Answer: T/C (dose: 2.0 mg/kg/injection, schedule: Q01DX009 (ip), vehicle: Klucel (hydroxypropylcellulose) (HPC)): 160, 172, 184, 189 % of control; T/C (dose: 2.0 mg/kg/injection, schedule: Q01DX009 (ip), vehicle: saline + alcohol, evaluated on day 30): 150, 162, 163, 167 % of control; T/C (dose: 2.0 mg/kg/injection, schedule: Q01DX009 (ip), vehicle: saline + alcohol, evaluated on day 45): 179 and 184 % of control; T/C (dose: 2.0 mg/kg/injection, schedule: Q01DX009 (ip), vehicle: saline, evaluated on day 30): 135, 156, 160, 184, 186, 187, 194, 198, 205, 232, 234, 247 % of control; T/C (dose: 2.0 mg/kg/injection, schedule: Q01DX009 (ip), vehicle: saline, evaluated on day 60): 130, 139, 146, 149 % of control; T/C (dose: 2.5 mg/kg/injection, schedule: Q01DX001 (ip), vehicle: saline): 132 % of control; T/C (dose: 3.75 mg/kg/injection, schedule: Q01DX001 (ip), vehicle: saline + alcohol): 138 % of control; T/C (dose: 4.0 mg/kg/injection, schedule: Q01DX009 (ip), vehicle: Klucel (hydroxypropylcellulose) (HPC)): 200, 209, 213 [5 of 6 alive], 249 % of control; T/C (dose: 4.0 mg/kg/injection, schedule: Q01DX009 (ip), vehicle: saline + alcohol, evaluated on day 30): 210, 211, 233, 236 % of control; T/C (dose: 4.0 mg/kg/injection, schedule: Q01DX009 (ip), vehicle: saline + alcohol, evaluated on day 45): 207 and 252 % of control; T/C (dose: 4.0 mg/kg/injection, schedule: Q01DX009 (ip), vehicle: saline, evaluated on day 30): 126, 168, 212, 222 [5 of 6 alive], 236, 251, 254, 256, 258, 272, 283, 287 % of control; T/C (dose: 4.0 mg/kg/injection, schedule: Q01DX009 (ip), vehicle: saline, evaluated on day 60): 155, 179, 239, 259 % of control; T/C (dose: 7.5 mg/kg/injection, schedule: Q01DX001 (ip), vehicle: saline): 125 % of control; T/C (dose: 7.5 mg/kg/injection, schedule: Q01DX005 (ip), vehicle: saline + alcohol, evaluated on day 30): 237, 283, 300 % of control; T/C (dose: 7.5 mg/kg/injection, schedule: Q01DX005 (ip), vehicle: saline + alcohol, evaluated on day 35): 228 and 294 % of control; T/C (dose: 7.5 mg/kg/injection, schedule: Q01DX005 (ip), vehicle: saline + alcohol, evaluated on day 40): 334 % of control; T/C (dose: 7.5 mg/kg/injection, schedule: Q01DX009 (ip), vehicle: saline + alcohol, evaluated on day 30): 170, 265, 283 % of control; T/C (dose: 7.5 mg/kg/injection, schedule: Q01DX009 (ip), vehicle: saline + alcohol, evaluated on day 35): 294 and 343 % of control; T/C (dose: 7.5 mg/kg/injection, schedule: Q01DX009 (ip), vehicle: saline + alcohol, evaluated on day 40): 396 % of control; T/C (dose: 8.0 mg/kg/injection, schedule: Q01DX001 (ip), vehicle: saline + alcohol): 128 % of control; T/C (dose: 8.0 mg/kg/injection, schedule: Q01DX009 (ip), vehicle: Klucel (hydroxypropylcellulose) (HPC)): 119, 215, 258, 270 % of control; T/C (dose: 8.0 mg/kg/injection, schedule: Q01DX009 (ip), vehicle: saline + alcohol, evaluated on day 5): 395 and 533 % of control; T/C (dose: 8.0 mg/kg/injection, schedule: Q01DX009 (ip), vehicle: saline + alcohol, evaluated on day 30): 158, 231, 245, 251 % of control; T/C (dose: 8.0 mg/kg/injection, schedule: Q01DX009 (ip), vehicle: saline + alcohol, evaluated on day 45): 330 and 427 % of control; T/C (dose: 8.0 mg/kg/injection, schedule: Q01DX009 (ip), vehicle: saline, evaluated on day 30): 118, 147, 178, 199, 203, 216, 238, 254, 257, 271, 305, 319 % of control; T/C (dose: 8.0 mg/kg/injection, schedule: Q01DX009 (ip), vehicle: saline, evaluated on day 60): 156, 194, 209, 547 % of control; T/C (dose: 10.0 mg/kg/injection, schedule: Q#XHX024 (ip), vehicle: saline): 140 % of control; T/C (dose: 12.5 mg/kg/injection, schedule: Q01DX010 (ip), vehicle: saline): 135 and 140 % of control; T/C (dose: 13.0 mg/kg/injection, schedule: Q01DX001 (ip), vehicle: other): 145 % of control; T/C (dose: 13.0 mg/kg/injection, schedule: Q01DX001 (ip), vehicle: saline + alcohol): 125 % of control; T/C (dose: 15.0 mg/kg/injection, schedule: Q01DX005 (ip), vehicle: saline + alcohol, evaluated on day 30): 143, 265, 283 % of control; T/C (dose: 15.0 mg/kg/injection, schedule: Q01DX005 (ip), vehicle: saline + alcohol, evaluated on day 35): 343 % of control (2×); T/C (dose: 15.0 mg/kg/injection, schedule: Q01DX005 (ip), vehicle: saline + alcohol, evaluated on day 40): 396 % of control; T/C (dose: 15.0 mg/kg/injection, schedule: Q01DX009 (ip), vehicle: saline + alcohol, evaluated on day 30): 98, 110, 132 % of control; T/C (dose: 15.0 mg/kg/injection, schedule: Q01DX009 (ip), vehicle: saline + alcohol, evaluated on day 35): 120 and 147 % of control; T/C (dose: 15.0 mg/kg/injection, schedule: Q01DX009 (ip), vehicle: saline + alcohol, evaluated on day 40): 121 % of control; T/C [1]: 87 and 99 % of control; survivor count [1]: 5 of 6 and 6 of 6; T/C (dose: 16.0 mg/kg/injection, schedule: Q01DX009 (ip), vehicle: other): 133 % of control; T/C (dose: 16.0 mg/kg/injection, schedule: Q01DX009 (ip), vehicle: saline + alcohol, evaluated on day 30): 99, 101, 102 % of control; T/C (dose: 16.0 mg/kg/injection, schedule: Q01DX009 (ip), vehicle: saline + alcohol, evaluated on day 45): 112 and 116 % of control; survivor count (dose: 16.0 mg/kg/injection, schedule: Q01DX009 (ip), vehicle: saline + alcohol): 6 of 6; T/C (dose: 16.0 mg/kg/injection, schedule: Q01DX009 (ip), vehicle: saline, evaluated on day 30): 90, 94, 95, 96, 102, 109, 119, 122, 128, 140, 157, 227 % of control; T/C (dose: 16.0 mg/kg/injection, schedule: Q01DX009 (ip), vehicle: saline, evaluated on day 60): 94 [5 of 6 alive], 99, 111 % of control (2×); T/C (dose: 20.0 mg/kg/injection, schedule: Q01DX001 (ip), vehicle: saline + alcohol, evaluated on day 30): 159, 230, 283 % of control; T/C (dose: 20.0 mg/kg/injection, schedule: Q01DX001 (ip), vehicle: saline + alcohol, evaluated on day 35): 176 and 238 % of control; T/C (dose: 20.0 mg/kg/injection, schedule: Q01DX001 (ip), vehicle: saline + alcohol, evaluated on day 40): 396 % of control; T/C (dose: 20.0 mg/kg/injection, schedule: Q01DX001 (ip), vehicle: saline + alcohol, evaluated on day 60): 231, 236, 330, 376, 535, 538 % of control; survivor count (dose: 24.0 mg/kg/injection, schedule: Q01DX001 (ip), vehicle: Klucel (hydroxypropylcellulose) (HPC)): 10 of 10; survivor count (dose: 25.0 mg/kg/injection, schedule: Q01DX010 (ip), vehicle: saline): 6 of 6; T/C (dose: 30.0 mg/kg/injection, schedule: Q01DX001 (ip), vehicle: saline + alcohol, evaluated on day 35): 350 % of control; T/C (dose: 30.0 mg/kg/injection, schedule: Q01DX001 (ip), vehicle: saline + alcohol, evaluated on day 46): 327 % of control; T/C (dose: 30.0 mg/kg/injection, schedule: Q01DX001 (ip), vehicle: saline + alcohol, evaluated on day 60): 230, 232, 535, 540, 550, 562 % of control; T/C (dose: 30.0 mg/kg/injection, schedule: Q01DX005 (ip), vehicle: saline + alcohol, evaluated on day 30): 87 and 90 % of control; T/C (dose: 30.0 mg/kg/injection, schedule: Q01DX005 (ip), vehicle: saline + alcohol, evaluated on day 35): 88 and 100 % of control; survivor count (dose: 30.0 mg/kg/injection, schedule: Q01DX005 (ip), vehicle: saline + alcohol): 6 of 6 (2×); T/C (dose: 30.0 mg/kg/injection, schedule: Q01DX009 (ip), vehicle: saline + alcohol, evaluated on day 30): 93 % of control; T/C (dose: 30.0 mg/kg/injection, schedule: Q01DX009 (ip), vehicle: saline + alcohol, evaluated on day 35): 91 and 97 % of control; survivor count (dose: 30.0 mg/kg/injection, schedule: Q01DX009 (ip), vehicle: saline + alcohol): 6 of 6 (2×); T/C (dose: 40.0 mg/kg/injection, schedule: Q01DX001 (ip), vehicle: saline + alcohol, evaluated on day 30): 265, 283, 300 % of control; T/C (dose: 40.0 mg/kg/injection, schedule: Q01DX001 (ip), vehicle: saline + alcohol, evaluated on day 35): 199 and 343 % of control; T/C (dose: 40.0 mg/kg/injection, schedule: Q01DX001 (ip), vehicle: saline + alcohol, evaluated on day 40): 396 % of control; T/C (dose: 40.0 mg/kg/injection, schedule: Q01DX001 (ip), vehicle: saline + alcohol, evaluated on day 60): 513, 525, 534, 539, 549, 564 % of control; survivor count (dose: 48.0 mg/kg/injection, schedule: Q01DX001 (ip), vehicle: Klucel (hydroxypropylcellulose) (HPC)): 10 of 10; survivor count (dose: 60.0 mg/kg/injection, schedule: Q01DX001 (ip), vehicle: other): 8 of 8; survivor count (dose: 60.0 mg/kg/injection, schedule: Q01DX001 (ip), vehicle: saline + alcohol): 5 of 6 and 7 of 8; survivor count (dose: 60.0 mg/kg/injection, schedule: Q01DX001 (ip), vehicle: saline): 6 of 8; T/C [2]: 274 % of control; survivor count [2]: 5 of 6 (2×) and 6 of 6 (2×)
